For 21 compounds, survivor count and T/C results are on record in PubChem BioAssay AID220 (DTP/NCI, 2004).

The list is a part of this screen's results and no random one: it is rich in T/C values a quarter to a half above the control, in often repeated tests (any T/C) and in doses without a T/C. Other doses and runs of a compound stand elsewhere. T/C is the treated group as % of the vehicle group. Schedules are NCI's codes, taken here to give the interval after Q, in days (D) or hours (H), and the number of doses after X. Some T/C values are followed by the survivors on the day toxicity was checked, most often the fifth; without a count, all were alive then. Some entries give survivors of the animals treated and no T/C: the source files T/C as zero there, which appears to mark a toxic dose or a test without result, not a measured value. Survivors were counted at the toxicity check, usually on the fifth day, unless a day is given; later deaths do not show. Some entries hold several experiments; the values are given in rising order.

In the assay the test system is CD8F1 mice, subcutaneous mammary adenocarcinoma, T/C%. As to the kind of experiment: NCI In Vivo Anticancer Drug Screen. Data for tumor model Mammary Adenocarcinoma CD8F1 (subcutaneous) in CD8F1. To be noted: higher T/C = larger tumour. The procedure, abridged:
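Compound-treated versus vehicle-treated mice with transplantable tumors; survival or tumor size compared as T/C.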

Setting [1] is: T/C endpoint: median tumor weight (est.), dose: 200.0 mg/kg/injection, schedule: Q07DX005 (ip), vehicle: Klucel (hydroxypropylcellulose) (HPC).
[2] abbreviates: T/C endpoint: median tumor weight change, dose: 2000.0 mg/kg/injection, schedule: Q01DX001 (ip), vehicle: saline.
Where [3] appears, read: T/C endpoint: median tumor weight (est.), dose: 200.0 mg/kg/injection, schedule: Q07DX005 (ip), vehicle: saline with Tween-80, evaluated on day 30.
Setting [4] is: T/C endpoint: median tumor weight change, dose: 500.0 mg/kg/injection, schedule: Q01DX001 (ip), vehicle: saline.
The mark [5] stands for this setting: T/C endpoint: median tumor weight change, dose: 1000.0 mg/kg/injection, schedule: Q01DX001 (ip), vehicle: saline.
Where [6] appears, read: T/C endpoint: median tumor weight change, dose: 500.0 mg/kg/injection, schedule: Q01DX001 (ip), vehicle: Klucel (hydroxypropylcellulose) (HPC).
Where [7] appears, read: T/C endpoint: median tumor weight change, dose: 1000.0 mg/kg/injection, schedule: Q01DX001 (ip), vehicle: Klucel (hydroxypropylcellulose) (HPC).

Take `CC(=O)OC(C)C1C2=C(C(=O)CC1(C)O)C(=O)c1c(ccc(-c3ccc4c(c3O)C(=O)C3=C(C4=O)C(C(C)OC(C)=O)C(C)(O)CC3=O)c1O)C2=O` (stereo unspecified): the survivor count by setting is: (T/C endpoint: median tumor weight change, dose: 60.0 mg/kg/injection, schedule: Q01DX001 (ip), vehicle: saline with Tween-80) 4 of 10 on day 32; (T/C endpoint: median tumor weight change, dose: 120.0 mg/kg/injection, schedule: Q01DX001 (ip), vehicle: saline with Tween-80) 1 of 10 on day 32.
As for `Oc1cc2ccccc2c(-c2c(O)c(O)cc3ccccc23)c1O`, the T/C by setting is: (T/C endpoint: median tumor weight (est.), dose: 12.5 mg/kg/injection, schedule: Q07DX005 (ip), vehicle: saline with Tween-80, evaluated on day 30) 138 % of control; (T/C endpoint: median tumor weight (est.), dose: 50.0 mg/kg/injection, schedule: Q07DX005 (ip), vehicle: saline with Tween-80, evaluated on day 30) 145 % of control.
Take `Nc1n[n+](-c2ccccc2)no1`: the survivor count (T/C endpoint: median tumor weight (est.), dose: 100.0 mg/kg/injection, schedule: Q07DX005 (ip), vehicle: water) is recorded as 0 of 10 on day 30; the survivor count (T/C endpoint: median tumor weight change, dose: 125.0 mg/kg/injection, schedule: Q01DX001 (ip), vehicle: water) was 0 of 10 on day 31; the survivor count (T/C endpoint: median tumor weight change, dose: 250.0 mg/kg/injection, schedule: Q01DX001 (ip), vehicle: water) is 0 of 10 on day 31.
In the case of `CN(C(=S)S(=O)(=O)C12CC3CC(CC(C3)C1)C2)c1ccccc1`, the survivor count under setting [1] was 3 of 10 on day 30.
Consider `CCC1CN2C(=N1)c1ccccc1-c1cc(Cl)ccc12` (stereo unspecified), for which the T/C (T/C endpoint: median tumor weight (est.), dose: 6.25 mg/kg/injection, schedule: Q07DX005 (ip), vehicle: suspension in saline, evaluated on day 32) is 135 % of control. In addition, the survivor count (T/C endpoint: median tumor weight (est.), dose: 100.0 mg/kg/injection, schedule: Q07DX005 (ip), vehicle: suspension in saline) was 1 of 10 on day 32.
For `O=C1C=C(C2OC(CO)C(O)C2O)C(=O)N1` (stereo unspecified), the T/C (T/C endpoint: median tumor weight (est.), dose: 3.13 mg/kg/injection, schedule: Q07DX005 (ip), vehicle: saline, evaluated on day 30) was 140 % of control. For the same compound, the survivor count runs as follows: (T/C endpoint: median tumor weight (est.), dose: 12.5 mg/kg/injection, schedule: Q07DX005 (ip), vehicle: saline) 6 of 10 on day 30; (T/C endpoint: median tumor weight (est.), dose: 25.0 mg/kg/injection, schedule: Q07DX005 (ip), vehicle: saline) 0 of 10 on day 30; (T/C endpoint: median tumor weight (est.), dose: 50.0 mg/kg/injection, schedule: Q07DX005 (ip), vehicle: saline) 0 of 10 on day 30.
Consider `NC(N)=NOCC[C@@H](N)C(=O)O`, for which the T/C (T/C endpoint: median tumor weight change, dose: 125.0 mg/kg/injection, schedule: Q01DX001 (ip), vehicle: saline, evaluated on day 28) is 149 % of control. For the same compound, the survivor count under setting [2] is on record as 0 of 10 on day 28.
As to `O=C(NP(=O)(N1CC1)N1CC1)c1cc(I)ccc1I`, the survivor count (T/C endpoint: median tumor weight (est.), dose: 256.0 mg/kg/injection, schedule: Q07DX005 (ip), vehicle: saline with Tween-80) is 4 of 10.
For `OCCOCC(F)(F)F`, the T/C under setting [3] was 129 % of control.
Take `CSC1SCC2C(=O)N(C)C(C(C)C)C(=O)OCC(NC(=O)c3cnc4ccccc4n3)C(=O)NC(C)C(=O)N(C)C1C(=O)N(C)C(C(C)C)C(=O)OCC(NC(=O)c1cnc3ccccc3n1)C(=O)NC(C)C(=O)N2C` (stereo unspecified): the survivor count (T/C endpoint: mean tumor weight, dose: 30.0 micrograms/kg/injection, schedule: Q07DX005 (ip), vehicle: saline) is 4 of 10.
Take `CN(C)[C@@H]1C(=O)C(C(N)=O)=C(O)[C@@]2(O)C(=O)C3=C(O)c4c(O)ccc(Cl)c4[C@@](C)(O)[C@H]3C[C@@H]12`: the survivor count (T/C endpoint: median tumor weight change, dose: 500.0 mg/kg/injection, schedule: Q01DX001 (ip), vehicle: suspension in saline) is 3 of 10 on day 26.
Turning to `OCC1OC(n2cnc3cc(Cl)c(Cl)cc32)C(O)C1O` (stereo unspecified), the T/C was 138 % of control (T/C endpoint: median tumor weight (est.), dose: 12.5 mg/kg/injection, schedule: Q07DX005 (ip), vehicle: saline with Tween-80, evaluated on day 32) and 130 % of control [9 of 10 alive] under setting [3].
As to `CS(=O)(=O)OCCCCOS(C)(=O)=O`, under setting [1], the survivor count is on record as 0 of 10 on day 30.
Regarding `OC1CCCC2CCCNC12` (stereo unspecified), the survivor count (T/C endpoint: median tumor weight (est.), dose: 100.0 mg/kg/injection, schedule: Q07DX005 (ip), vehicle: saline with Tween-80) is on record as 4 of 10.
Take `NC1=NC(=O)N2CC12` (stereo unspecified): the survivor count is, setting by setting: under setting [4], 1 of 10 on day 28; under setting [5], 0 of 10 on day 28; under setting [2], 0 of 9 on day 28.
Take `COc1c(CNC(=O)CCl)cc2[nH]c(C)cc2c1CNC(=O)CCl`: where the note is “T/C endpoint: median tumor weight (est.), dose: 25.0 mg/kg/injection, schedule: Q07DX005 (ip), vehicle: Klucel (hydroxypropylcellulose) (HPC), evaluated on day 30”, the T/C is 135 % of control. Besides, the survivor count is listed as 0 of 10 on day 29 under setting [6]; 0 of 10 on day 29 under setting [7]; 0 of 10 on day 29 (T/C endpoint: median tumor weight change, dose: 2000.0 mg/kg/injection, schedule: Q01DX001 (ip), vehicle: Klucel (hydroxypropylcellulose) (HPC)).
With `CC1(C)N=C(N)N=C(N)N1c1ccc(CCCCc2ccc(S(=O)(=O)F)cc2Cl)c(Cl)c1`, the survivor count (T/C endpoint: median tumor weight (est.), dose: 25.0 mg/kg/injection, schedule: Q07DX005 (ip), vehicle: other) is 6 of 10 on day 30; the survivor count (T/C endpoint: median tumor weight (est.), dose: 50.0 mg/kg/injection, schedule: Q07DX005 (ip), vehicle: other) is given as 5 of 10 on day 30; the survivor count (T/C endpoint: median tumor weight (est.), dose: 100.0 mg/kg/injection, schedule: Q07DX005 (ip), vehicle: other) is 0 of 10 on day 30; the survivor count (T/C endpoint: median tumor weight (est.), dose: 200.0 mg/kg/injection, schedule: Q07DX005 (ip), vehicle: other) is on record as 0 of 10 on day 30; the survivor count (T/C endpoint: median tumor weight change, dose: 400.0 mg/kg/injection, schedule: Q01DX001 (ip), vehicle: saline with Tween-80) is 6 of 10 on day 27; the survivor count (T/C endpoint: median tumor weight change, dose: 450.0 mg/kg/injection, schedule: Q01DX001 (ip), vehicle: saline with Tween-80) was 5 of 10 on day 35. Also, the survivor count (T/C endpoint: median tumor weight change, dose: 800.0 mg/kg/injection, schedule: Q01DX001 (ip), vehicle: saline with Tween-80) was 1 of 10 on day 27 and the survivor count (T/C endpoint: median tumor weight change, dose: 900.0 mg/kg/injection, schedule: Q01DX001 (ip), vehicle: saline with Tween-80) is listed as 5 of 10 on day 35.
As to `CC(=O)N(C)c1ccc(Nc2cc(C)[nH]c3ccc4ncnc4c23)cc1`, the survivor count by setting is: (T/C endpoint: median tumor weight change, dose: 250.0 mg/kg/injection, schedule: Q01DX001 (ip), vehicle: saline) 0 of 10 on day 39 and 3 of 10 on day 31; under setting [4], 0 of 10 on day 39 and 1 of 10 on day 31; under setting [5], 0 of 10 on day 39 and 1 of 10 on day 31.
For `N/C(=N\OC(=O)Nc1ccc(CSc2ccc(Cl)cc2)o1)c1ccccn1`, the survivor count reads like this: under setting [6], 0 of 10 on day 28; under setting [7], 0 of 10 on day 28.
Turning to `CC1(C)COCN1COC1CCCCC1`, the T/C (T/C endpoint: median tumor weight change, dose: 125.0 mg/kg/injection, schedule: Q01DX001 (ip), vehicle: saline with Tween-80, evaluated on day 31) is 145 % of control. Further, the survivor count runs as follows: (T/C endpoint: median tumor weight change, dose: 250.0 mg/kg/injection, schedule: Q01DX001 (ip), vehicle: saline with Tween-80) 0 of 10 on day 32 and 3 of 10 on day 31; (T/C endpoint: median tumor weight change, dose: 500.0 mg/kg/injection, schedule: Q01DX001 (ip), vehicle: saline with Tween-80) 0 of 10 on day 31 and 0 of 10 on day 32; (T/C endpoint: median tumor weight change, dose: 1000.0 mg/kg/injection, schedule: Q01DX001 (ip), vehicle: saline with Tween-80) 0 of 10 on day 31 and 0 of 10 on day 32; (T/C endpoint: median tumor weight change, dose: 2000.0 mg/kg/injection, schedule: Q01DX001 (ip), vehicle: saline with Tween-80) 0 of 10 on day 31 and 0 of 10 on day 32.
As to `Cc1cc2nc3c(=O)[nH]c(=O)nc-3n(CC(O)C(O)C(O)C(O)CO)c2cc1C` (stereo unspecified), the T/C (T/C endpoint: median tumor weight (est.), dose: 50.0 mg/kg/injection, schedule: Q07DX005 (ip), vehicle: suspension in saline, evaluated on day 30) was 131 % of control. The survivor count (T/C endpoint: median tumor weight (est.), dose: 1600.0 mg/kg/injection, schedule: Q07DX005 (ip), vehicle: suspension in saline) is reported as 2 of 10 on day 30.
